Assay results reported in patent US7572938B2, “Precursors for ketones and aldehydes” (Givaudan SA, priority 2001, dated 2009).

Assay: Photorelease assays on fabric: spray tests, evaluation by a trained panel of perfumers
Parameters: key: 0: very weak; +: weak; ++: medium; +++: strong
Settings: Terry towel sprayed with 0.2% solution in ethanol
[1] = natural winter sun light behind glass window

Row | Compound | Fragrance Target (perception) Aldehyde/Ketone (III) nat. light [1] | Global appreciation nat. light [1] | Fragrance Target (perception) Aldehyde/Ketone (III) art. light (tanning lamp 300 W, 50 cm) | Global appreciation art. light (tanning lamp 300 W, 50 cm) | Fragrance Target (perception) Aryl ketone (II) nat. light [1] | Fragrance Target (perception) Aryl ketone (II) art. light (tanning lamp 300 W, 50 cm)
1 | CCN(CC)c1ccc(C(=O)C(OCC(C)Cc2ccc(C(C)(C)C)cc2)OCC(C)Cc2ccc(C(C)(C)C)cc2)cc1 (centres unmarked) [compound 41] | 0 | 0 | + | + |  | 
2 | CCCCCCCCCC(C)COC(OCC(C)CCCCCCCCC)C(=O)c1ccc(SC)cc1 (centres unmarked) [compound 32] | + | + | +++ | +++ |  | 
3 | CC(COC(OCC(C)Cc1ccc(C(C)(C)C)cc1)C(=O)c1ccccc1)Cc1ccc(C(C)(C)C)cc1 (centres unmarked) [compound 25] | + | + | ++ | ++ | + | ++
